Assay results taken from PubChem BioAssay AID330 (DTP/NCI, 2004).
The list does not hold the whole screen: it gathers tests that were run many times, whatever their T/C, doses with no T/C, and many T/C values between a quarter and a half above the control. Further doses and runs are listed elsewhere. T/C gives the treated animals as a percentage of the vehicle group. Some doses have a count of surviving animals in place of a T/C: the source files T/C as zero there, which appears to mark a toxic dose or a test without result, not a measured value. Some doses without a T/C left all or most animals alive at the check, yet need not have been tolerated: survival well below the control is almost never listed, so the zero probably covers shortened survival too. Counts of survivors are from the toxicity check (mostly the fifth day) where no day follows; animals may have died later. Schedule codes are those of the source, taken here to give the interval after Q, in days (D) or hours (H), and the number of doses after X. Some doses were run more than once; the results are listed from low to high. Where survival is the endpoint, the PubChem record calls one and a half times the control and up active, and a quarter to a half above the control has no call in these data; cut-offs in other NCI protocols can differ.

Test system: P388 leukemia ip, CD2F1 mice, survival T/C
Experiment: NCI In Vivo Anticancer Drug Screen. Data for tumor model P388 Leukemia (intraperitoneal) in CD2F1 (CDF1) mice
Details: T/C endpoint: median survival time, higher T/C = longer survival
[1] = dose: 200.0 mg/kg/injection, schedule: Q01DX009 (ip), vehicle: saline with Tween-80
[2] = dose: 200.0 mg/kg/injection, schedule: Q01DX009 (ip), vehicle: other
[3] = dose: 200.0 mg/kg/injection, schedule: Q01DX009 (ip), vehicle: Klucel (hydroxypropylcellulose) (HPC)
[4] = dose: 200.0 mg/kg/injection, schedule: Q01DX009 (ip), vehicle: saline

CN(C)c1ccc2c(NCCCCCCNc3ccnc4cc(N(C)C)ccc34)ccnc2c1
T/C (dose: 3.12 mg/kg/injection, schedule: Q01DX009 (ip), vehicle: distilled water + Tween-80 + alcohol): 125 % of control | T/C (dose: 3.12 mg/kg/injection, schedule: Q01DX009 (ip), vehicle: distilled water + alcohol): 125 % of control | T/C (dose: 3.13 mg/kg/injection, schedule: Q01DX009 (ip), vehicle: distilled water + alcohol): 130 % of control | T/C (dose: 6.25 mg/kg/injection, schedule: Q01DX009 (ip), vehicle: distilled water + Tween-80 + alcohol): 140 % of control | T/C (dose: 6.25 mg/kg/injection, schedule: Q01DX009 (ip), vehicle: distilled water + alcohol): 128 and 140 % of control | T/C (dose: 12.5 mg/kg/injection, schedule: Q01DX009 (ip), vehicle: distilled water + Tween-80 + alcohol): 144 % of control | T/C (dose: 12.5 mg/kg/injection, schedule: Q01DX009 (ip), vehicle: distilled water + alcohol): 145 % of control | survivor count (dose: 50.0 mg/kg/injection, schedule: Q01DX009 (ip), vehicle: distilled water + Tween-80 + alcohol): 4 of 6 | survivor count (dose: 50.0 mg/kg/injection, schedule: Q01DX009 (ip), vehicle: distilled water + alcohol): 2 of 6 and 5 of 6 | survivor count (dose: 100.0 mg/kg/injection, schedule: Q01DX009 (ip), vehicle: distilled water + Tween-80 + alcohol): 0 of 6 | survivor count (dose: 100.0 mg/kg/injection, schedule: Q01DX009 (ip), vehicle: distilled water + alcohol): 0 of 6 | survivor count (dose: 200.0 mg/kg/injection, schedule: Q01DX009 (ip), vehicle: distilled water + alcohol): 0 of 6

ClCC(CCl)(CCl)CCl
survivor count (dose: 200.0 mg/kg/injection, schedule: Q04DX003 (ip), vehicle: saline with Tween-80): 1 of 6 | survivor count (dose: 400.0 mg/kg/injection, schedule: Q04DX003 (ip), vehicle: saline with Tween-80): 0 of 6

COc1cccc2c1C(=O)c1c(O)c3c(c(O)c1C2=O)CC(O)(C(C)=O)CC3OC1CC(N/C(C)=C/C(C)=O)C(O)C(C)O1 (configuration not stated)
T/C (dose: 50.0 mg/kg/injection, schedule: Q04DX003 (ip), vehicle: distilled water + Tween-80): 128 and 132 % of control | T/C (dose: 100.0 mg/kg/injection, schedule: Q04DX003 (ip), vehicle: distilled water + Tween-80): 144 % of control

CCCCCCCCOC(=O)CP(=O)(O)O
survivor count [1]: 6 of 6

Cc1c2cnccc2c(C)c2c1c1c(C)c3cnccc3c(C)c1n2C
survivor count (dose: 200.0 mg/kg/injection, schedule: Q04DX002 (ip), vehicle: distilled water + Tween-80): 6 of 6

C1CSCCSCCCSCCSC1
survivor count [1]: 6 of 6

CC1(C)OC2CCC3OC(=O)C(C)(Cl)C3C2O1 (configuration not stated)
survivor count [2]: 1 of 3

CC[CH2][Pb]([CH2]CC)([CH2]CC)[O]C(=O)C(F)(F)F
T/C (dose: 4.0 mg/kg/injection, schedule: Q01DX009 (ip), vehicle: saline with Tween-80): 130 % of control | T/C (dose: 6.0 mg/kg/injection, schedule: Q01DX009 (ip), vehicle: saline with Tween-80): 139 % of control | T/C (dose: 6.25 mg/kg/injection, schedule: Q01DX009 (ip), vehicle: saline): 125 % of control | T/C (dose: 9.0 mg/kg/injection, schedule: Q01DX009 (ip), vehicle: saline with Tween-80): 143 % of control | survivor count (dose: 12.5 mg/kg/injection, schedule: Q01DX009 (ip), vehicle: saline): 5 of 6 | survivor count (dose: 25.0 mg/kg/injection, schedule: Q01DX009 (ip), vehicle: saline): 0 of 6

Cc1c(-c2ccc(-c3ccccc3F)cc2)nc2ccc(F)cc2c1C(=O)O
T/C (dose: 5.6 mg/kg/injection, schedule: Q01DX005 (ip), vehicle: water): 142 % of control | T/C (dose: 11.25 mg/kg/injection, schedule: Q01DX005 (ip), vehicle: water): 141 % of control | T/C (dose: 22.5 mg/kg/injection, schedule: Q01DX005 (ip), vehicle: water, evaluated on day 20): 139 % of control | T/C (dose: 22.5 mg/kg/injection, schedule: Q01DX005 (ip), vehicle: water, evaluated on day 30): 149 % of control | T/C (dose: 45.0 mg/kg/injection, schedule: Q01DX005 (ip), vehicle: water): 143 % of control | T/C (dose: 90.0 mg/kg/injection, schedule: Q01DX005 (ip), vehicle: water): 143 % of control | survivor count (dose: 180.0 mg/kg/injection, schedule: Q01DX005 (ip), vehicle: water): 3 of 6

Clc1nccc2c1ncn2[Te]n1cnc2c(Cl)nccc21
survivor count (dose: 50.0 mg/kg/injection, schedule: Q04DX002 (ip), vehicle: saline): 2 of 6

COC1=CC(=O)N(C(=O)C2CSC(C(CO)NC(=O)c3csc(/C=N/O)n3)=N2)C1 (configuration not stated)
T/C (dose: 100.0 mg/kg/injection, schedule: Q01DX009 (ip), vehicle: Klucel (hydroxypropylcellulose) (HPC)): 140 % of control | T/C [3]: 136 % of control | T/C (dose: 400.0 mg/kg/injection, schedule: Q01DX009 (ip), vehicle: Klucel (hydroxypropylcellulose) (HPC)): 141 % of control

NNc1cc2c(nn1)CCN(C(=O)c1ccccc1)C2
survivor count [4]: 2 of 6

C[N+]1(C)CCC(C(=O)c2ccccc2)CC1
survivor count (dose: 50.0 mg/kg/injection, schedule: Q01DX005 (ip), vehicle: saline): 0 of 6 | survivor count (dose: 100.0 mg/kg/injection, schedule: Q01DX005 (ip), vehicle: saline): 0 of 6 | survivor count (dose: 200.0 mg/kg/injection, schedule: Q01DX005 (ip), vehicle: saline): 0 of 6

O=C(Nc1ncc([N+](=O)[O-])s1)C(Cl)Cl
survivor count [3]: 3 of 6

CNC(=O)OCc1c(COC(=O)NC)c(-c2ccc(Sc3ccccc3)cc2)n(C)c1C
T/C (dose: 12.5 mg/kg/injection, schedule: Q01DX009 (ip), vehicle: distilled water + Tween-80): 142 % of control | T/C (dose: 25.0 mg/kg/injection, schedule: Q01DX009 (ip), vehicle: distilled water + Tween-80): 146 % of control | survivor count (dose: 200.0 mg/kg/injection, schedule: Q01DX009 (ip), vehicle: distilled water + Tween-80): 6 of 6

NC(=O)NN=C(C(F)(F)F)C(F)(F)F
survivor count [1]: 2 of 6

O=S(=O)(O)c1c(O)c2ccccc2c2nc3ccccc3nc12
survivor count (dose: 200.0 mg/kg/injection, schedule: Q01DX007 (ip), vehicle: saline): 5 of 6

C[N+]1(C)CCOCC1
survivor count (dose: 3.12 mg/kg/injection, schedule: Q01DX009 (ip), vehicle: saline): 6 of 6 | survivor count (dose: 50.0 mg/kg/injection, schedule: Q01DX009 (ip), vehicle: saline): 0 of 6 | survivor count (dose: 100.0 mg/kg/injection, schedule: Q01DX009 (ip), vehicle: saline): 0 of 6 | survivor count [4]: 0 of 6

COc1cc(Br)cc(C(=O)O)c1OC
T/C [2]: 126 % of control | survivor count (dose: 400.0 mg/kg/injection, schedule: Q01DX009 (ip), vehicle: other): 3 of 6

CCOC(=O)C1=C(C(=O)c2ccc(C)cc2)C(c2ccc([N+](=O)[O-])cc2)C(C(=O)c2ccc(C)cc2)=C(C(=O)OCC)N1
survivor count (dose: 240.0 mg/kg/injection, schedule: Q01DX005 (ip), vehicle: saline with Tween-80): 6 of 6

O=[N+]([O-])c1cc(S(=O)(=O)NCc2ccco2)ccc1N/N=C/c1ccccn1
survivor count (dose: 6.25 mg/kg/injection, schedule: Q01DX009 (ip), vehicle: saline with Tween-80): 6 of 6 | survivor count (dose: 12.5 mg/kg/injection, schedule: Q01DX009 (ip), vehicle: saline with Tween-80): 6 of 6 | survivor count (dose: 25.0 mg/kg/injection, schedule: Q01DX009 (ip), vehicle: saline with Tween-80): 6 of 6 | survivor count (dose: 50.0 mg/kg/injection, schedule: Q01DX009 (ip), vehicle: saline with Tween-80): 5 of 6 | survivor count (dose: 100.0 mg/kg/injection, schedule: Q01DX009 (ip), vehicle: saline with Tween-80): 6 of 6

CCN(CC)CCCNc1cc(C)nc2c1ccc1c2ccc2c(NCCCN(CC)CC)cc(C)nc21
survivor count (dose: 100.0 mg/kg/injection, schedule: Q01DX009 (ip), vehicle: water): 4 of 6

S=C(N/N=C/c1ccc(Cl)s1)NC12CC3CC(CC(C3)C1)C2
survivor count (dose: 60.0 mg/kg/injection, schedule: Q01DX005 (ip), vehicle: Klucel (hydroxypropylcellulose) (HPC)): 6 of 6 | survivor count (dose: 120.0 mg/kg/injection, schedule: Q01DX005 (ip), vehicle: Klucel (hydroxypropylcellulose) (HPC)): 6 of 6
